Source: publication PMC9758165
These are yes or no findings as the source states them, for the method shown. Binding seen in cells or lysates may run through a third protein. Some entries that bind do so weakly or less than the wild type.

Sequences of proteins named here, by UniProt entry; tags and fusion partners are left off.
UniProt O96019: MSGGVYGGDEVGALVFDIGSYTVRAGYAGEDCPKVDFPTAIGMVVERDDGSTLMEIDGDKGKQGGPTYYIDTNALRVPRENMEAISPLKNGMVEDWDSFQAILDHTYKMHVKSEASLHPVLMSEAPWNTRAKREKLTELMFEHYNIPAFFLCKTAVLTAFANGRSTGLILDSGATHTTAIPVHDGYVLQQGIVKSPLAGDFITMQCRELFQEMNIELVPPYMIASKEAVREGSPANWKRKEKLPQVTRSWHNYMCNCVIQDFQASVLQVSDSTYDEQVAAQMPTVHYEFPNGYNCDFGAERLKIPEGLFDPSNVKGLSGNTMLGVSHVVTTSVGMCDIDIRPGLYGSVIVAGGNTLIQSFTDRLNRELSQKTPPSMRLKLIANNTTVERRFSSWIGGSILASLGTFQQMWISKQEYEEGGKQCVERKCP

Target: BAF53A (human (endogenous in DLD1)) (UniProt O96019)
Assay: co-IP; DLD1 cell lysate (50 mM Tris-Cl pH 7.5, 0.1% NP-40, 0.1% Triton-100, 150 mM NaCl, 0.1 M EDTA) incubated with BAF53A antibody or control IgG at 4 °C overnight, protein A/G agarose beads, immunoblot

- binding: binds
B1: P63 (protein, UniProt Q9H3D4 1-680)
chain: MNFETSRCATLQYCPDPYIQRFVETPAHFSWKESYYRSTMSQSTQTNEFLSPEVFQHIWDFLEQPICSVQPIDLNFVDEPSEDGATNKIEISMDCIRMQDSDLSDPMWPQYTNLGLLNSMDQQIQNGSSSTSPYNTDHAQNSVTAPSPYAQPSSTFDALSPSPAIPSNTDYPGPHSFDVSFQQSSTAKSATWTYSTELKKLYCQIAKTCPIQIKVMTPPPQGAVIRAMPVYKKAEHVTEVVKRCPNHELSREFNEGQIAPPSHLIRVEGNSHAQYVEDPITGRQSVLVPYEPPQVGTEFTTVLYNFMCNSSCVGGMNRRPILIIVTLETRDGQVLGRRCFEARICACPGRDRKADEDSIRKQQVSDSTKNGDGTKRPFRQNTHGIQMTSIKKRRSPDDELLYLPVRGRETYEMLLKIKESLELMQYLPQHTIETYRQQQQQQHQHLLQKQTSIQSPSSYGNSSPPLNKMNSMNKLPSVSQLINPQQRNALTPTTIPDGMGANIPMMGTHMPMAGDMNGLSPTQALPPPLSMPSTSHCTPPPPYPTDCSIVSFLARLGCSSCLDYFTTQGLTTIYQIEHYSMDDLASLKIPEQFRHAIWKGILDHRQLHEFSSPSHLLRTPSSASTVSVGSSETRGERVIDAVRFTLRQTISFPPRDEWNDFNFDMDARRNKQQRIKEEGE
